Source: article PMC5566547
Construct, isoform or probe ends are uncertain for at least one entry. Weaker means in comparison with the reference protein, sequence or condition of that experiment.

Sequences of proteins named here, by UniProt entry; tags and fusion partners are left off. A change or cut given only in a name is not applied to a line headed by its entry. A line that says so, or that is headed by a name, gives the form on record, which may keep a tag or linker.
UniProt Q96FI4, other isoform, or with tags, fused parts or gaps: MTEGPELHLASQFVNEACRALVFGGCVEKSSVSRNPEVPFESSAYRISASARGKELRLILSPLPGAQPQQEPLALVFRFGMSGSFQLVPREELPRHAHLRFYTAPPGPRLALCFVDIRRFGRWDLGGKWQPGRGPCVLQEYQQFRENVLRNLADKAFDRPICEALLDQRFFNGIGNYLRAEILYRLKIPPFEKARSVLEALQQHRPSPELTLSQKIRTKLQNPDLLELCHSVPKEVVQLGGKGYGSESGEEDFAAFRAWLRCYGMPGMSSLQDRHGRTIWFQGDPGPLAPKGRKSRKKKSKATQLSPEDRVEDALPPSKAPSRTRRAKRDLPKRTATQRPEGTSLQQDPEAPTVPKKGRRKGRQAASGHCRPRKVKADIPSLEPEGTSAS

Target: NEIL1 P2T (human) (UniProt Q96FI4)
Experiment: EMSA
Details: EMSA: 25 mM Tris-HCl pH 7.5, 100 mM NaCl, 1 mM DTT, 10 nM DNA, 1-200 nM NEIL1 P2T, on ice 30 min; 6% native PAGE, 0.5x TBE, 4 C; recombinant protein; protein details: C-terminal His6; label: 5'-32P top strand; letters put together from the description

**Q.** Does “GCTACCTACCTAGCAGGGGCCAGCTGTCCCACTGCTCGGAA (double strand) [41-mer C:G]” bind?
**A.** binds more weakly
